Values quoted from earlier work as cited in patent US20230139506A1, “HETEROCLITIC CANCER VACCINES” (MEMORIAL SLOAN KETTERING CANCER CENTER, priority 2020, published 2023).
For at least one compound, name, drawing or mass did not settle the structure.

Test system: CALRMUT MPN patients
Settings: cited from earlier work

## N#CC[C@H](C1CCCC1)n1cc(-c2ncnc3[nH]ccc23)cn1 [ruxolitinib]
CALRMUT MPN patients
  clinical response: demonstrate clinical responses
Following JAK2 inhibition
  CALRMUT allele burden: no reduction in CALRMUT allele burden
